In PubChem BioAssay AID720504 (National Center for Advancing Translational Sciences (NCATS), 2013):
Out of some 360,000 compounds screened, about 10,000 (2.8%) were called active. This list was built around the results that the source calls inconclusive (neither active nor inactive); the mix of calls is not that of the screen. Calls come from the whole dose curve; as a rule, active = well fitted inhibition curve with a large enough effect; inconclusive = small, poorly fitted or top-dose-only effect; inactive = flat fitted curve, though single readings scatter. Where the call is inconclusive, the potency comes from a doubtful curve fit.

The chains behind the UniProt entries cited, without tags or fusion partners.
UniProt P53350, whole entry, looked up: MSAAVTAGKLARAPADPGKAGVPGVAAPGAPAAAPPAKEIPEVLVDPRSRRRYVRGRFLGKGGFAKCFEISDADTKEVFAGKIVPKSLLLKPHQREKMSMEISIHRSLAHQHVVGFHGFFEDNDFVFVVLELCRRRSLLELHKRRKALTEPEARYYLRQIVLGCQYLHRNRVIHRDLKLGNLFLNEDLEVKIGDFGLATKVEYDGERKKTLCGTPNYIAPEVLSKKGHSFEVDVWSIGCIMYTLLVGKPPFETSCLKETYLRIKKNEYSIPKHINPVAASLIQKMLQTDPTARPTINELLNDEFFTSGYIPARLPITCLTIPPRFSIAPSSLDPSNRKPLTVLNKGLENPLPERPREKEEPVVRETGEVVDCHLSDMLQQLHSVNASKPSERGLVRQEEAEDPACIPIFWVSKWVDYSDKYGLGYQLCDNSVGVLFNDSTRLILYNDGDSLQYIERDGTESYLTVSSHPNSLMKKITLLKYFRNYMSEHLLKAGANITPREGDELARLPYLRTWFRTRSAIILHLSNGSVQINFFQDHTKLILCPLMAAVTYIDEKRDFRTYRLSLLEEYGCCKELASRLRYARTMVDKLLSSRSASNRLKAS

The molecules below were run against Serine/threonine-protein kinase PLK1 (Homo sapiens) (UniProt P53350) (assay: qHTS for Inhibitors of PLK1-PDB (polo-like kinase 1 - polo-box domain): Primary Screen). Settings: Plk1 PBD binding of FITC phosphopeptide, fluorescence polarization.
% is set by controls: 0 for no effect and ±100 for the full control effect; potency is the fitted concentration of half-maximal effect.
Note: nearly all actives have a fitted effect of over 65% in size.
Throughout, for max response, negative = inhibition: series mostly up to about 57 µM.

| SMILES | Potency | max response, negative = inhibition |
| --- | --- | --- |
| O=C(CCN1CCN(S(=O)(=O)c2cccc([N+](=O)[O-])c2)CC1)Nc1ccccc1F | active: 26.7 µM |  |
| Cc1ccc2c(c1)N(CCC(=O)NC1CCCCC1)C(=O)CO2 |  | inactive: -4.65% |
| Cc1ccc(NC(=O)CN(C)S(=O)(=O)c2cccs2)cc1C |  | inactive: -0.844% |
| CCc1ccc2nc(SCC(=O)N3CCCCC3)c(C#N)cc2c1 | inconclusive: 42.3 µM [inhibitor, partial curve] |  |
| CCCCSc1nc(C)c(CC(=O)OC)c(=O)[nH]1 | inconclusive: 37.7 µM [inhibitor, single point] |  |
| N#C/C(=C/c1ccc(Oc2ccc([N+](=O)[O-])cn2)cc1)C(=O)N1CCOCC1 |  | inactive: -7.55% |
| O=S(=O)(NC1=NCCC1)c1cccc(NC(=S)NCCc2ccccc2)c1 | inconclusive: 26.7 µM [inhibitor, partial curve] |  |
| O=C(COC(=O)C(c1ccccc1)c1ccccc1)NCc1ccco1 |  | inactive: 0.604% |
| CCOC(=O)C1=C(CC)Nc2ccccc2N=C1NC(=O)c1ccc(S(=O)(=O)N(C)C)cc1 | active: 2.67 µM |  |
| C=CCn1c(=O)c2c(nc3n2CC(C)CN3CCc2ccccc2)n(C)c1=O (stereo not given) |  | inactive: -0.669% |
| O=C(Nc1nc(-c2ccco2)cs1)c1ccccc1 | inconclusive: 23.8 µM [inhibitor, partial curve] |  |
| Cc1nc(C)c(C(=O)Nc2nc3c(C)cccc3s2)o1 | active: 23.8 µM |  |
| Nc1ccc(O)c2c1C(=O)c1ccccc1C2=O | inconclusive: 29.9 µM [inhibitor, partial curve] |  |
| COC(=O)c1ccc(N/N=C/c2cc([N+](=O)[O-])cc(OC)c2O)cc1 |  | inactive: 0.344% |
| CCc1nnc(NC(=O)CCC(=O)N2CCN(c3cc(Cl)ccc3C)CC2)s1 | inconclusive: 26.7 µM [inhibitor, single point] |  |
| Cn1c2ccccc2c(=O)c2c(=O)n(Cc3ccco3)c(COc3ccccc3)nc21 | inconclusive: 16.8 µM [inhibitor, partial curve] |  |
| O=C(O)c1cccc(N/N=C/c2ccc(-c3ccccc3)cc2)c1 | inconclusive: 29.9 µM [inhibitor, single point] |  |
| CC(Sc1ccc(S(=O)(=O)N(C)C)cn1)C(=O)NC1CCCC1 (stereo not given) | inconclusive: 29.9 µM [inhibitor, partial curve] |  |
| O=C(NCCCN1CCCC1=O)Nc1ccc([N+](=O)[O-])cc1 |  | inactive: -0.265% |
| O=C(NCCc1ccc(F)cc1)Nc1ccc2c(c1)OCO2 | active: 8.44 µM |  |
| NC(=O)c1ccc(N=Cc2ccc([N+](=O)[O-])s2)cc1 |  | inconclusive: -37.3% [inhibitor] |
| COc1ccc(NC(=O)NNC(=O)CCc2ccc(O)c(O)c2)cc1OC |  | inactive: -6.16% |
| COc1cc(CN2CCCCCC2)cc(OC)c1OC |  | inactive: -8.81% |
| COc1ccc(NC(=O)c2cc([N+](=O)[O-])ccc2NC(=O)CNCc2ccccn2)c(OC)c1 |  | inconclusive: -34.1% [inhibitor] |
| O=C(c1ccc2c(c1)OCO2)N1CCCC1 | inconclusive: 8.44 µM [inhibitor, single point] |  |

| SMILES | Potency | max response, negative = inhibition |
| --- | --- | --- |
| CS(=O)(=O)Nc1ccccc1C(=O)c1ccccc1 | inconclusive: 21.2 µM [inhibitor, partial curve] |  |
| CCOc1ccc(CCNC(=O)C2CCN(S(=O)(=O)CC)CC2)cc1OCC |  | inactive: -3.67% |
| O=C(Cc1cccs1)Nc1nnc(Cc2ccccc2)s1 | active: 26.7 µM |  |
| O=C(O)c1ccc(/C=C2\SC(=S)N(Nc3ccccc3)C2=O)cc1 | active: 21.2 µM |  |
| CCc1nc(SCC(=O)N2CC(=O)Nc3ccccc32)c2c(C)c(C)sc2n1 |  | inconclusive: -34% [inhibitor] |
| O=[N+]([O-])c1ccc(-n2nnnc2-c2ccccc2)cc1 | active: 10.6 µM |  |
| CC1CC(C)CN(CC(O)COCc2ccccc2F)C1 (stereo not given) |  | inactive: 4.01% |
| O=C(c1ccco1)N1CCN(C(=O)c2ccccc2NS(=O)(=O)c2ccc(F)cc2)CC1 |  | inactive: -13.1% |
| CC1=NNC(=O)/C1=C\c1cn(-c2ccccc2)nc1-c1ccc(Cl)cc1 | active: 5.32 µM |  |
| Cc1sc2nc(COC(=O)c3ccc(Cl)c(N)c3)[nH]c(=O)c2c1C |  | inactive: 2.63% |
| COc1ccc(C(=O)/C=C(\C)Nc2ccc(NC(C)=O)cc2)cc1 |  | inactive: -7.81% |
| COc1ccc(NC(=O)Oc2ccccc2)cc1Cl |  | inconclusive: -30.2% [inhibitor] |
| Cc1nc(-c2ccc(S(=O)(=O)Oc3ccccc3Cl)s2)cs1 |  | inactive: -10.1% |
| Cc1[nH]n(C(N)=S)c(=O)c1N=Nc1cc(C(F)(F)F)ccc1Cl | inconclusive: 15 µM [inhibitor, partial curve] |  |
| Cc1ccccc1NC(=O)c1cc(C(=O)c2cc(Cl)ccc2O)cn(-c2ccccc2C)c1=O |  | inactive: 0.313% |
| COc1ccc(Cc2nc(-c3ccc(Br)o3)no2)cc1OC |  | inactive: -13.2% |
| Cc1ccc(C)c(NC(=O)CSc2nc3nc(-c4cccs4)cc(C(F)(F)F)c3c(=O)[nH]2)c1 | active: 21.2 µM |  |
| Cc1ccccc1C(=O)Nc1nnc(CC(=O)N/N=C/c2cn(Cc3ccccc3)c3ccccc23)s1 | inconclusive: 75.2 µM [inhibitor, partial curve] |  |
| COc1cccc(C(=O)Nc2cc3c(cc2N2CCOCC2)n(C)c(=O)n3C)c1 | inconclusive: 33.6 µM [inhibitor, single point] |  |
| CC(N=Cc1cccc(O)c1O)c1ccccc1 (stereo not given) | inconclusive: 21.2 µM [inhibitor, single point] |  |
| CC(=O)NC1=C(NC2CCS(=O)(=O)C2)C(=O)c2ccccc2C1=O (stereo not given) | inconclusive: 23.8 µM [inhibitor, single point] |  |
| NC(=O)CSc1nnc(COc2ccccc2)n1C1CCCCC1 |  | inactive: -1.09% |
| CNc1oc(C)nc1S(=O)(=O)c1ccccc1 | inconclusive: 28.2 µM [inhibitor, partial curve] |  |
| COc1cc(C=O)ccc1OCCOCCOc1ccc(Cl)cc1Cl |  | inactive: -1.92% |
| Cc1cccc(C)c1N1CCN(C(=O)Cn2cncn2)CC1 | inconclusive: 21.2 µM [inhibitor, partial curve] |  |

9 neighbouring entries out of the list so far, for reference:

| SMILES | Potency | max response, negative = inhibition |
| --- | --- | --- |
| Cc1ccccc1NC(=O)c1cc(C(=O)c2cc(Cl)ccc2O)cn(-c2ccccc2C)c1=O |  | inactive: 0.313% |
| COc1ccc(Cc2nc(-c3ccc(Br)o3)no2)cc1OC |  | inactive: -13.2% |
| Cc1ccc(C)c(NC(=O)CSc2nc3nc(-c4cccs4)cc(C(F)(F)F)c3c(=O)[nH]2)c1 | active: 21.2 µM |  |
| Cc1ccccc1C(=O)Nc1nnc(CC(=O)N/N=C/c2cn(Cc3ccccc3)c3ccccc23)s1 | inconclusive: 75.2 µM [inhibitor, partial curve] |  |
| COc1cccc(C(=O)Nc2cc3c(cc2N2CCOCC2)n(C)c(=O)n3C)c1 | inconclusive: 33.6 µM [inhibitor, single point] |  |
| CC(N=Cc1cccc(O)c1O)c1ccccc1 (stereo not given) | inconclusive: 21.2 µM [inhibitor, single point] |  |
| CC(=O)NC1=C(NC2CCS(=O)(=O)C2)C(=O)c2ccccc2C1=O (stereo not given) | inconclusive: 23.8 µM [inhibitor, single point] |  |
| NC(=O)CSc1nnc(COc2ccccc2)n1C1CCCCC1 |  | inactive: -1.09% |
| CNc1oc(C)nc1S(=O)(=O)c1ccccc1 | inconclusive: 28.2 µM [inhibitor, partial curve] |  |
